Data on one molecule can be found in article PMC9799981.

Protein sequences, listed by entry. Tags and fused reporters are not part of them.
UniProt P09405: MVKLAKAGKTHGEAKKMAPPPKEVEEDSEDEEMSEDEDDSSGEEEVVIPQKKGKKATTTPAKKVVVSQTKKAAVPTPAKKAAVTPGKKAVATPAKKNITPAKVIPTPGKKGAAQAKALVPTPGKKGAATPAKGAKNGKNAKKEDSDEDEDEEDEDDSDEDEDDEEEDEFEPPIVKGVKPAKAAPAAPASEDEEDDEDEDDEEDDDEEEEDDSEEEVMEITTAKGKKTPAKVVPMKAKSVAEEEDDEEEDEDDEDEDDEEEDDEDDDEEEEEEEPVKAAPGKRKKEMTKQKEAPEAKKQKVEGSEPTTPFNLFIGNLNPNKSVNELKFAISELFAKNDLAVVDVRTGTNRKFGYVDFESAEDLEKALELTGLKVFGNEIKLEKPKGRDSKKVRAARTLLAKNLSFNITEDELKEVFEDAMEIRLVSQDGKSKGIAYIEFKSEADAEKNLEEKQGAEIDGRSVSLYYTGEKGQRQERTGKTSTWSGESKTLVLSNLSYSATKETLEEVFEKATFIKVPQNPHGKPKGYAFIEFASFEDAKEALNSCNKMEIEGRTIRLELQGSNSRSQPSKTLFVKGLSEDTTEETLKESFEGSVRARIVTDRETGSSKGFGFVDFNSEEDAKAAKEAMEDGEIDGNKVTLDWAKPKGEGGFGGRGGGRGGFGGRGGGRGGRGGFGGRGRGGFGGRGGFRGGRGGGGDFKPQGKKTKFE

For the assay, the target named is nucleolin (mouse (endogenous in HL-1)) (UniProt P09405). Description: co-IP; immunoprecipitation from HL-1 cell nuclear extracts with anti-nucleolin antibody (IgG as negative control, anti-p54^nrb as positive); capillary Simple Western (Jess) with anti-p54^nrb antibody.

These are yes or no findings as the source states them, for the method shown. In cells and extracts the contact can be indirect. Some entries that bind do so weakly or less than the wild type.

B1: p54^nrb (endogenous mouse Nono) (protein, UniProt Q99K48 1-473)
chain: MQSNKAFNLEKQNHTPRKHHQHHHQQHHQQQQQQQQQQPPPPIPANGQQASSQNEGLTIDLKNFRKPGEKTFTQRSRLFVGNLPPDITEEEMRKLFEKYGKAGEVFIHKDKGFGFIRLETRTLAEIAKVELDNMPLRGKQLRVRFACHSASLTVRNLPQYVSNELLEEAFSVFGQVERAVVIVDDRGRPSGKGIVEFSGKPAARKALDRCSEGSFLLTTFPRPVTVEPMDQLDDEEGLPEKLVIKNQQFHKEREQPPRFAQPGSFEYEYAMRWKALIEMEKQQQDQVDRNIKEAREKLEMEMEAARHEHQVMLMRQDLMRRQEELRRMEELHNQEVQKRKQLELRQEEERRRREEEMRRQQEEMMRRQQEGFKGTFPDAREQEIRMGQMAMGGAMGINNRGAMPPAPVPPGTPAPPGPATMMPDGTLGLTPPTTERFGQAATMEGIGAIGGTPPAFNRPAPGAEFAPNKRRRY
For B1, the binding result is “binds”.
